Test results reported in article PMC3762332.
Construct, isoform or probe ends are uncertain for at least one entry. For some of these results: Protein sequences can lack the tags named with them.

Sequences of proteins named here, by UniProt entry; tags and fusion partners are left off. A change or cut given only in a name is not applied to a line headed by its entry.
UniProt Q8IW36: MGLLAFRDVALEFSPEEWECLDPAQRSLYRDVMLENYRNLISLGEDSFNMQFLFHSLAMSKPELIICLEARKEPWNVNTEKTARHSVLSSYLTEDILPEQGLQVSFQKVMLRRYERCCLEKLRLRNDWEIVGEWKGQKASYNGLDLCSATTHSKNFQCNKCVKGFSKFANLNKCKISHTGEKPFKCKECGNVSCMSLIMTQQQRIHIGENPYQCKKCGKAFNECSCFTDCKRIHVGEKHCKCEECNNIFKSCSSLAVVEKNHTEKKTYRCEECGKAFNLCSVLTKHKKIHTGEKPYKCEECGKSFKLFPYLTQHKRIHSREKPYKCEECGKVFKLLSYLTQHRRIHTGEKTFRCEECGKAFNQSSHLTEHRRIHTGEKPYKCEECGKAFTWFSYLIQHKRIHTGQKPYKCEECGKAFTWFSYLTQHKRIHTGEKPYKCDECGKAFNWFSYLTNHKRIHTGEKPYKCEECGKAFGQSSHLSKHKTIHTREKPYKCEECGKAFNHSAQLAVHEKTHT
UniProt Q8NC26: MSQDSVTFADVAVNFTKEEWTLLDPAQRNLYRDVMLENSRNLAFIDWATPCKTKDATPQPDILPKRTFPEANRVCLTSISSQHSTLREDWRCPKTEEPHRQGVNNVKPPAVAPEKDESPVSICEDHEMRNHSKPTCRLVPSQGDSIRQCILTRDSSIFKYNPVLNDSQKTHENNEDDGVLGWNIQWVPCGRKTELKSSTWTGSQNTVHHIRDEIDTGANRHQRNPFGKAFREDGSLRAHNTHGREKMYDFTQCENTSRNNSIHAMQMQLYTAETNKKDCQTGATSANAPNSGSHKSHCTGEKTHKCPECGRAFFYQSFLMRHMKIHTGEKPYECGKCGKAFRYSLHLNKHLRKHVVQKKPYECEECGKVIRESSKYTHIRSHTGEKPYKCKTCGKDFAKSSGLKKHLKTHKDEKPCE
UniProt O00716: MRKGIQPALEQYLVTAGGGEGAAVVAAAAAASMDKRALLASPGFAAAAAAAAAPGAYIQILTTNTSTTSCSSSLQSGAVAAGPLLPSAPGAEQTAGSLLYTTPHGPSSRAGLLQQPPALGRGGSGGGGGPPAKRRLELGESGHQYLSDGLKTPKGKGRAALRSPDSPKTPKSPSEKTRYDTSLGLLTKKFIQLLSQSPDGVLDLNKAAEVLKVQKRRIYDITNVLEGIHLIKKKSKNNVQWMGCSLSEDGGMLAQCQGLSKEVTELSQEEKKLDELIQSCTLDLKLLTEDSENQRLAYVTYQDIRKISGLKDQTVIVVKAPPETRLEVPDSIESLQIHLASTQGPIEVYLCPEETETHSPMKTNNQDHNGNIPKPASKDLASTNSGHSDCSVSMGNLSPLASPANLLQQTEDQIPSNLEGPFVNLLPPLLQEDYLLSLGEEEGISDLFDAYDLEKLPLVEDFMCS
UniProt P43694: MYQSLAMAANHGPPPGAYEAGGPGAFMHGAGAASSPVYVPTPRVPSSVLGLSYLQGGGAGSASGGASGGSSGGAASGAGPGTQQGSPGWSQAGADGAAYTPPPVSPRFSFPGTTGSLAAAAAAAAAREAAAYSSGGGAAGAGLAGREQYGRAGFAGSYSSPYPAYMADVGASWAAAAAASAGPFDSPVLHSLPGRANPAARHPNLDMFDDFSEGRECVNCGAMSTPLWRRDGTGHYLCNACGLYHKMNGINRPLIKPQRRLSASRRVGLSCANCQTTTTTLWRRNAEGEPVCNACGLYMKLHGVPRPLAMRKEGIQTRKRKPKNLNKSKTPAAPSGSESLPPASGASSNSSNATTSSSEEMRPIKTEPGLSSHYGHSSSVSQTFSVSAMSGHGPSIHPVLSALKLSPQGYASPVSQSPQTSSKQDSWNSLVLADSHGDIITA
UniProt Q9Y2L8: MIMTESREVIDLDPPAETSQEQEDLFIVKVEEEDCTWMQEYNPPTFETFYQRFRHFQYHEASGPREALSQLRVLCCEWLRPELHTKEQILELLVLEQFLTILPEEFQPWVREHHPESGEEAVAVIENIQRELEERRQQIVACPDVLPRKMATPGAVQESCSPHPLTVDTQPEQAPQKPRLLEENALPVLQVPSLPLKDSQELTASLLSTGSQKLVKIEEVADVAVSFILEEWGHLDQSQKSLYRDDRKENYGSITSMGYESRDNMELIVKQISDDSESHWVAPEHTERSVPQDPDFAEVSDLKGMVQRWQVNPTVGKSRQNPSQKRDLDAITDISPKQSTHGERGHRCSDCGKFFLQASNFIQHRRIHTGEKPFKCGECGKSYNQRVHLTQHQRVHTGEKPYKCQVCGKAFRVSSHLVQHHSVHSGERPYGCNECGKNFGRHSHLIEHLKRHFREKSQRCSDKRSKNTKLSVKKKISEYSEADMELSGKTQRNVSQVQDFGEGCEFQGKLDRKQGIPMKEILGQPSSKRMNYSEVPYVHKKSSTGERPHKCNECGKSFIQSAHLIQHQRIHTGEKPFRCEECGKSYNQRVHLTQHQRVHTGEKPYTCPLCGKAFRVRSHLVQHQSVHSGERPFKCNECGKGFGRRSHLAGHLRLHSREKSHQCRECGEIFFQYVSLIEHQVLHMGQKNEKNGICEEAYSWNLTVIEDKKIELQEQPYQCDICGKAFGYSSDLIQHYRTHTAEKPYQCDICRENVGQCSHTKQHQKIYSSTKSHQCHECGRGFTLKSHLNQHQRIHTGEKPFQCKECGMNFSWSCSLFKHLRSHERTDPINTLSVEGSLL
UniProt Q9BWM5: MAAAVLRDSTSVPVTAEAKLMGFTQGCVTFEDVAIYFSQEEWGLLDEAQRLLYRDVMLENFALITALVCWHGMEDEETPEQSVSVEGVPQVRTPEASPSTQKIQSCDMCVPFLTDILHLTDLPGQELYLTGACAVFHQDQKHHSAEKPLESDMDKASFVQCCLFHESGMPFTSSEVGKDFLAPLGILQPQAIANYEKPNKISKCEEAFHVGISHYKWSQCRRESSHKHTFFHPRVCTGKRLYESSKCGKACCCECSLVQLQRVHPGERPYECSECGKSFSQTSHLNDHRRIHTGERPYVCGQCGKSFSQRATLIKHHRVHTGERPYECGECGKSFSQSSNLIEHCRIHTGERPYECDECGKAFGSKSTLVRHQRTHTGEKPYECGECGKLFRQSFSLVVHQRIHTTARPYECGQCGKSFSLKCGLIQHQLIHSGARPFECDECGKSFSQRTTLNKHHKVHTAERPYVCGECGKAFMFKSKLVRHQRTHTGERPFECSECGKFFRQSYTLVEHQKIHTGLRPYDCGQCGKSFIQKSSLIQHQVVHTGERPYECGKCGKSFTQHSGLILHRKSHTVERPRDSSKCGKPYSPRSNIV
UniProt P37231: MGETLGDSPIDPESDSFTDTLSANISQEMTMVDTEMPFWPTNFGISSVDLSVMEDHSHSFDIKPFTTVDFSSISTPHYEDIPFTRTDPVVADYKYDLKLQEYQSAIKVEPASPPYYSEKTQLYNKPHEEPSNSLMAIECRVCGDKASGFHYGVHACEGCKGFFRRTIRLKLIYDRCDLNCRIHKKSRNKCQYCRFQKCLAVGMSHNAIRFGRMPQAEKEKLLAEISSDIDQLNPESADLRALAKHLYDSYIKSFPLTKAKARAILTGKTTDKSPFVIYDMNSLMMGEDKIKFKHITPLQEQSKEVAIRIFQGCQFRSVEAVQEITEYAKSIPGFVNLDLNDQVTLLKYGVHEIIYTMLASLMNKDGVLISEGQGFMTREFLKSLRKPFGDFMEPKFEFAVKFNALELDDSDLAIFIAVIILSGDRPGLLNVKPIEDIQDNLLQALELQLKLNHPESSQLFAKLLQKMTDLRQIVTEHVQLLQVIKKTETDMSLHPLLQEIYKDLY
UniProt P19793: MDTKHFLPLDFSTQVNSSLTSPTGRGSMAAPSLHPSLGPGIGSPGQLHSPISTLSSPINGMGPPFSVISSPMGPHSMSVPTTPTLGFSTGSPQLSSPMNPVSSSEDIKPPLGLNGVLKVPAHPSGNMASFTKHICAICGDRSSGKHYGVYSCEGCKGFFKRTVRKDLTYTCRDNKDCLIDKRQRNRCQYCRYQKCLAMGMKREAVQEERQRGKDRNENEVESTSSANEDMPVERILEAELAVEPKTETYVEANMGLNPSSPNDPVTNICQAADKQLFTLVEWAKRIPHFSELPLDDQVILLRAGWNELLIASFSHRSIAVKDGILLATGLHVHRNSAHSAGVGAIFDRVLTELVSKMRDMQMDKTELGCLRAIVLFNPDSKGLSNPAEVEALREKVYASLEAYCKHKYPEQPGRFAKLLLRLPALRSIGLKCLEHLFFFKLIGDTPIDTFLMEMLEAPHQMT
UniProt P20719: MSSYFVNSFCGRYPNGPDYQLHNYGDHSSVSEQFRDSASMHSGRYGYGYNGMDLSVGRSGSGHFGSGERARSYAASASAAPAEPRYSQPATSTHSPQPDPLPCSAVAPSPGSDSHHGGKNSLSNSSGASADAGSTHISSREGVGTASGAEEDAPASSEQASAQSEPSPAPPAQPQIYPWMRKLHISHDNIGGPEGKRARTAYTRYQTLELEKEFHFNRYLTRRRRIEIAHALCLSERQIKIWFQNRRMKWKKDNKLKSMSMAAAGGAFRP
UniProt P05549: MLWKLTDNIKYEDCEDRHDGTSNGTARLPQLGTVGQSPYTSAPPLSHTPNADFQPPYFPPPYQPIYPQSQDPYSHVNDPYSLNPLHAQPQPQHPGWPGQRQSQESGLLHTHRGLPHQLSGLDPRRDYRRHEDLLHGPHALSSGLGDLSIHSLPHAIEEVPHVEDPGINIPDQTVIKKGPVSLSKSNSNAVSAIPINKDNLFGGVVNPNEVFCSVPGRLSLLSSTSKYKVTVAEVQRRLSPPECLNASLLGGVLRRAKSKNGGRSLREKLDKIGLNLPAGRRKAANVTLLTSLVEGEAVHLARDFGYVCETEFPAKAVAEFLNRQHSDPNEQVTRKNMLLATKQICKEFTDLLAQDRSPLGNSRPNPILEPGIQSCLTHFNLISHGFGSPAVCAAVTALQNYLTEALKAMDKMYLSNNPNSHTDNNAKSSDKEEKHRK

How the values were obtained:
Experiment in all cases: protein microarray
Conditions in all cases: 10-fold cold unmethylated competitor; 5mC at CpG (SssI, both strands); recombinant protein; protein details: GST (N-terminal); label: Cy5
ZNF695 (Homo sapiens) = ZNF695 (Homo sapiens) (UniProt Q8IW36)
ZNF114 (Homo sapiens) = ZNF114 (Homo sapiens) (UniProt Q8NC26)
E2F3 (Homo sapiens) = E2F3 (Homo sapiens) (UniProt O00716)
GATA4 (Homo sapiens) = GATA4 (Homo sapiens) (UniProt P43694)
ZKSCAN5 (Homo sapiens) = ZKSCAN5 (Homo sapiens) (UniProt Q9Y2L8)
ZNF416 (Homo sapiens) = ZNF416 (Homo sapiens) (UniProt Q9BWM5)
SMAD4 (Homo sapiens) = molecular target: T1, SMAD4 (Homo sapiens) (UniProt Q13485)
T1 sequence (looked up, limits assumed): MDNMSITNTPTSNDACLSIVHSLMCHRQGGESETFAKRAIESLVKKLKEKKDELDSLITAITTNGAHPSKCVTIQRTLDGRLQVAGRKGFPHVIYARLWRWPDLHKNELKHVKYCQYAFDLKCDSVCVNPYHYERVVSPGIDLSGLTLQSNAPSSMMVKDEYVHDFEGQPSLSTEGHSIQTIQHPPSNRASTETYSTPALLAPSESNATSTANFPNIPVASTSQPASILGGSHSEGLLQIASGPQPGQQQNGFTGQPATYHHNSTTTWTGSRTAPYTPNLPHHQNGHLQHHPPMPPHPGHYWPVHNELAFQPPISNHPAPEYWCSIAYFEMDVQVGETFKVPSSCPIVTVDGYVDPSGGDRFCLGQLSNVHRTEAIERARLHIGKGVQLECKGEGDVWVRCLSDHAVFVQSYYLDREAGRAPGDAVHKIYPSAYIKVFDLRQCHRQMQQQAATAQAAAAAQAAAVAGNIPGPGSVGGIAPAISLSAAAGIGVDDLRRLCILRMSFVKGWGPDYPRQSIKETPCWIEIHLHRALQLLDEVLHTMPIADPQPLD

SCAPER (Homo sapiens) = molecular target: T2, SCAPER (Homo sapiens) (UniProt Q9BY12)
T2 sequence (looked up, limits assumed): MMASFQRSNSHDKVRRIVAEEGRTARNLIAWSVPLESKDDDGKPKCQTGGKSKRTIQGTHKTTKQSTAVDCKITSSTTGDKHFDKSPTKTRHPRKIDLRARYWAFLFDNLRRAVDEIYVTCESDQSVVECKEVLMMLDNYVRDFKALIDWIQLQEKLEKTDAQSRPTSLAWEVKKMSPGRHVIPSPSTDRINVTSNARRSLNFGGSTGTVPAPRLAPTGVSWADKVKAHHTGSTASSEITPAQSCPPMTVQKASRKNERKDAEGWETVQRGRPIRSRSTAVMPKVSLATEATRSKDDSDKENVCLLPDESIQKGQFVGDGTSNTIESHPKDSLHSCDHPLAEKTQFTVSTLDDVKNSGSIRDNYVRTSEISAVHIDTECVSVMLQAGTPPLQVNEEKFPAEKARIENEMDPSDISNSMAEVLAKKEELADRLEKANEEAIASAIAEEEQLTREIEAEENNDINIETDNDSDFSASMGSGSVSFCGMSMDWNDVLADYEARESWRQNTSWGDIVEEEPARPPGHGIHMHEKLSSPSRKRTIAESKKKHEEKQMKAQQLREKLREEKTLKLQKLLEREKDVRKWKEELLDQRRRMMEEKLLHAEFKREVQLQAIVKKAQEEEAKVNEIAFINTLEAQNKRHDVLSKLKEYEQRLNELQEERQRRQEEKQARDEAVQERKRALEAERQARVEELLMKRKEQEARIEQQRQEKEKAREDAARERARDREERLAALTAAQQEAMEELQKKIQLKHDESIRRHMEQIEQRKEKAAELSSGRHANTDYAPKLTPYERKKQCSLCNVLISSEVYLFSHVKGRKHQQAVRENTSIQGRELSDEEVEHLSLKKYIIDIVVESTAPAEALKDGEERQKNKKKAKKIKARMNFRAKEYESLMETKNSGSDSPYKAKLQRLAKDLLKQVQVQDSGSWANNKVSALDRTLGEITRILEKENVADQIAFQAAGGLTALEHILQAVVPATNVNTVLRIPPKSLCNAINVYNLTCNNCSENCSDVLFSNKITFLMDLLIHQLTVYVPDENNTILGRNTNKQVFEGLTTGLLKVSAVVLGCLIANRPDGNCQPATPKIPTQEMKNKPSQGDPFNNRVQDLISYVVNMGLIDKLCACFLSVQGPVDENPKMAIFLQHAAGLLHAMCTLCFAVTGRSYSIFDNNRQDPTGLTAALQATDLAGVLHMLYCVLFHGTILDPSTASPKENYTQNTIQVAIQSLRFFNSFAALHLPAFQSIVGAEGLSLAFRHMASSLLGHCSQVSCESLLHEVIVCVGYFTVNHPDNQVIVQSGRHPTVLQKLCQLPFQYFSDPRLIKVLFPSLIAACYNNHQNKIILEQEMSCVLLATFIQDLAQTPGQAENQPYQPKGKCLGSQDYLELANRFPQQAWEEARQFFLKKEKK

PPARG (Homo sapiens) = PPARG (Homo sapiens) (UniProt P37231)
RXRA (Homo sapiens) = RXRA (Homo sapiens) (UniProt P19793)
ZCCHC7 (Homo sapiens) = molecular target: T3, ZCCHC7 (Homo sapiens) (UniProt Q8N3Z6)
T3 sequence (looked up, limits assumed): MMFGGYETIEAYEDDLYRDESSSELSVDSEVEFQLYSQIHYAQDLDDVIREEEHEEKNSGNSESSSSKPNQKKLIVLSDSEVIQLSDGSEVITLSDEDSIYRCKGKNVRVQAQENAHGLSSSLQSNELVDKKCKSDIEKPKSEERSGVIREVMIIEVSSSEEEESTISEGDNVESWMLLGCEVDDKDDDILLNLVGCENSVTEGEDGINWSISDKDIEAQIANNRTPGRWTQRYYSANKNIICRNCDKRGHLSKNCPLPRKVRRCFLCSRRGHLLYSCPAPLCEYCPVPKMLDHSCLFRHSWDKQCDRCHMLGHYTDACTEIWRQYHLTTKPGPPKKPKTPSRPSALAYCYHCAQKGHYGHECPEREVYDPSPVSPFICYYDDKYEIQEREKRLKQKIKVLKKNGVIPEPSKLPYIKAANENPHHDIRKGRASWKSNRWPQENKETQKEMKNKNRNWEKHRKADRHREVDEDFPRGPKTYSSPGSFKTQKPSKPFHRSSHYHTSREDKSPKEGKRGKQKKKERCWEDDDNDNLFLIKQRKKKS

RNF138 (Homo sapiens) = molecular target: T4, RNF138 (Homo sapiens) (UniProt Q8WVD3)
T4 sequence (looked up, limits assumed): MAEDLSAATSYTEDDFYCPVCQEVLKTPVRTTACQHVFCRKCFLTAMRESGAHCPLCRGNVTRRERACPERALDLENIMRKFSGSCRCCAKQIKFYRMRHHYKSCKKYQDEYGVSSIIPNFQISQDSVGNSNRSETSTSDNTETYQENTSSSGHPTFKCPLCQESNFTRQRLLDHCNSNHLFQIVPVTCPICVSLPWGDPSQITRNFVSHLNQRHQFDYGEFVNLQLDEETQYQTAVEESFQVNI

HOXA5 (Homo sapiens) = HOXA5 (Homo sapiens) (UniProt P20719)
BCL3 (Homo sapiens) = molecular target: T5, BCL3 (Homo sapiens) (UniProt P20749)
T5 sequence (looked up, limits assumed): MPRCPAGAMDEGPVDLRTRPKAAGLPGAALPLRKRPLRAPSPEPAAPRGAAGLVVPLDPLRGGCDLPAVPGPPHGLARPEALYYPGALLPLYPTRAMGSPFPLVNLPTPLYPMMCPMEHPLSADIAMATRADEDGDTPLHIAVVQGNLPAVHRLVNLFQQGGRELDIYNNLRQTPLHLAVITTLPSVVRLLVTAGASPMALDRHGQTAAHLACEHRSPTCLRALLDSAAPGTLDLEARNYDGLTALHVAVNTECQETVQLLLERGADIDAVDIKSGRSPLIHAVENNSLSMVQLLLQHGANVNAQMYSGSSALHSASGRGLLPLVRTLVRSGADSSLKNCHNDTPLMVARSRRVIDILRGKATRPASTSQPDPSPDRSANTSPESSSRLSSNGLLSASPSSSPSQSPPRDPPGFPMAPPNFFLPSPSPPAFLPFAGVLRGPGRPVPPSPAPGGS

TFAP2A (Homo sapiens) = TFAP2A (Homo sapiens) (UniProt P05549)

Measured: binding result

AGCGAGTATCCCAGCGAGTATCCCTATAGTGAGTGCTATTA (double strand) [M273]
binds: ZNF695 (Homo sapiens) | ZNF114 (Homo sapiens) | E2F3 (Homo sapiens) | GATA4 (Homo sapiens) | ZKSCAN5 (Homo sapiens) | ZNF416 (Homo sapiens)

CCCGGAGAAACCCGGAGCCCTATAGTGAGTGCTATTA (double strand) [M302]
not listed: ZKSCAN5 (Homo sapiens)
binds: all other assays above

CCGCCTCTTCCGAAACCGCCTCTTCCGCCCTATAGTGAGTGCTATTA (double strand) [M245]
binds: SCAPER (Homo sapiens) | E2F3 (Homo sapiens) | ZKSCAN5 (Homo sapiens) | ZNF416 (Homo sapiens)

CCGCTTCTTTCCGCTTCCCCTATAGTGAGTGCTATTA (double strand) [M320]
not listed: ZKSCAN5 (Homo sapiens) | ZCCHC7 (Homo sapiens)
binds: all other assays above

CTGATTTCCCCGAAATGACGGAAACTGATTTCCCCGAAATGACGGCCCTATAGTGAGTGCTATTA (double strand) [M51]
binds: SCAPER (Homo sapiens) | ZNF114 (Homo sapiens) | RXRA (Homo sapiens) | HOXA5 (Homo sapiens) | ZKSCAN5 (Homo sapiens)

GAACGCTAGAAAGAACGCTAGCCCTATAGTGAGTGCTATTA (double strand) [M257]
binds: ZNF695 (Homo sapiens) | ZNF114 (Homo sapiens) | E2F3 (Homo sapiens) | ZKSCAN5 (Homo sapiens) | ZNF416 (Homo sapiens)

GCATGGCGGAAAGCATGGCGGCCCTATAGTGAGTGCTATTA (double strand) [M282]
binds: ZNF695 (Homo sapiens) | ZNF114 (Homo sapiens) | E2F3 (Homo sapiens) | GATA4 (Homo sapiens) | TFAP2A (Homo sapiens) | ZKSCAN5 (Homo sapiens) | ZNF416 (Homo sapiens)

GCTCGAAAGAAAGCTCGAAAGCCCTATAGTGAGTGCTATTA (double strand) [M270]
binds: ZNF695 (Homo sapiens) | ZNF114 (Homo sapiens) | ZKSCAN5 (Homo sapiens) | ZNF416 (Homo sapiens)

GGCCACGTCAAAGGCCACGTCCCCTATAGTGAGTGCTATTA (double strand) [M288]
not listed: SMAD4 (Homo sapiens) | ZCCHC7 (Homo sapiens) | RNF138 (Homo sapiens) | HOXA5 (Homo sapiens) | BCL3 (Homo sapiens) | TFAP2A (Homo sapiens)
binds: all other assays above

TAGCGCAATCCCTAGCGCAATCCCTATAGTGAGTGCTATTA (double strand) [M272]
binds: ZNF695 (Homo sapiens) | ZNF114 (Homo sapiens) | E2F3 (Homo sapiens) | TFAP2A (Homo sapiens) | ZKSCAN5 (Homo sapiens) | ZNF416 (Homo sapiens)

TAGCTACGACCCTAGCTACGACCCTATAGTGAGTGCTATTA (double strand) [M261]
binds: ZNF695 (Homo sapiens) | ZNF114 (Homo sapiens) | E2F3 (Homo sapiens) | GATA4 (Homo sapiens) | TFAP2A (Homo sapiens) | ZKSCAN5 (Homo sapiens) | ZNF416 (Homo sapiens)

TCTCACGCAACCCTCTCACGCAACCCTATAGTGAGTGCTATTA (double strand) [M57]
binds: ZNF114 (Homo sapiens) | HOXA5 (Homo sapiens) | ZKSCAN5 (Homo sapiens)

TGACGGTACAGAAATGACGGTACAGCCCTATAGTGAGTGCTATTA (double strand) [M382]
binds: ZNF695 (Homo sapiens) | SCAPER (Homo sapiens) | PPARG (Homo sapiens) | ZNF114 (Homo sapiens) | RNF138 (Homo sapiens) | HOXA5 (Homo sapiens) | ZKSCAN5 (Homo sapiens) | ZNF416 (Homo sapiens)
